Paper PMC4022514, “The C-Terminal Domain from S. cerevisiae Pat1 Displays Two Conserved Regions Involved in Decapping Factor Recruitment” (PLoS ONE, 2014)

Chains of the proteins cited; added tags and fusions are not shown. Lines headed by an entry give the natural chain unless they say otherwise; changes in a name come on top.
UniProt P25644: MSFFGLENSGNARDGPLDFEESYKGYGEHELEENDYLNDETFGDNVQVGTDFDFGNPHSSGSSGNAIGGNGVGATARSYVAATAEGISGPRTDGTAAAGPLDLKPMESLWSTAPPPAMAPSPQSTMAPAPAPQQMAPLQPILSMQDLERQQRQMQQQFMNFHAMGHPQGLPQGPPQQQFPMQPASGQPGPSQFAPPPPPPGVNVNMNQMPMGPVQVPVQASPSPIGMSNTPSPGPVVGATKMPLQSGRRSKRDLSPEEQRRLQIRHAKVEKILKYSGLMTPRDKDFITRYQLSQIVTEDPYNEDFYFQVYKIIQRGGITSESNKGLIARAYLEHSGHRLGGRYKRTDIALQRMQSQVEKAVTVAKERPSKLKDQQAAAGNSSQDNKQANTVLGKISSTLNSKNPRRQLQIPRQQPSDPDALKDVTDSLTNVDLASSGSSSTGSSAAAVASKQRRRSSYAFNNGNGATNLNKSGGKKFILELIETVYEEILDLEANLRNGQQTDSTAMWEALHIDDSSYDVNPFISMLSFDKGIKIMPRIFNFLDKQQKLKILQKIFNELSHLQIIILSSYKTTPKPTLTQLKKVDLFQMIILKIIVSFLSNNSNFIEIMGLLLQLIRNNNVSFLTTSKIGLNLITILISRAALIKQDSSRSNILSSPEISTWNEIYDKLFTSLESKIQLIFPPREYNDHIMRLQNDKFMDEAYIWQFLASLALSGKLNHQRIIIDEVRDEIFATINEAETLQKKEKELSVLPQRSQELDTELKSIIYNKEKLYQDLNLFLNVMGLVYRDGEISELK

Key:
[1] = biological target: T1, Edc3 (two-hybrid fusion to the DNA binding domain) (S. cerevisiae) (UniProt P39998); assay: two-hybrid; yeast strain MAV203 (wild type for EDC3); β-galactosidase activity by Beta-Glo; Pat1 fused to Gal4AD
T1 sequence: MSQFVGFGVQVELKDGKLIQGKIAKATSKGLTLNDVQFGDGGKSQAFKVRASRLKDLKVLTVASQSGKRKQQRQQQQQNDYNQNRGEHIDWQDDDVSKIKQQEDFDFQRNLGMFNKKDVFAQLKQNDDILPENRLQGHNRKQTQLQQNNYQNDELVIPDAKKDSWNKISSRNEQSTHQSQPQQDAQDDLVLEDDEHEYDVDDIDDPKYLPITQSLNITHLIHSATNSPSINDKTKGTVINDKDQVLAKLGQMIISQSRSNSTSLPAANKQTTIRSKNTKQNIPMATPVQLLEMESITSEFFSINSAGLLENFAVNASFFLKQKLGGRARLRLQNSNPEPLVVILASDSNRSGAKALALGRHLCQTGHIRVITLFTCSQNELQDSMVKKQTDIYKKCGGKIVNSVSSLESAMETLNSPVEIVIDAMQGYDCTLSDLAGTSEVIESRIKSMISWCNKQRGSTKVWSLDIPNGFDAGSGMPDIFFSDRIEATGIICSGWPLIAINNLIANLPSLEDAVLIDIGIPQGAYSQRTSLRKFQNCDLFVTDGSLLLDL

[2] = biological target: T2, Scd6 (two-hybrid fusion) (S. cerevisiae) (UniProt P45978); assay: as above
T2 sequence: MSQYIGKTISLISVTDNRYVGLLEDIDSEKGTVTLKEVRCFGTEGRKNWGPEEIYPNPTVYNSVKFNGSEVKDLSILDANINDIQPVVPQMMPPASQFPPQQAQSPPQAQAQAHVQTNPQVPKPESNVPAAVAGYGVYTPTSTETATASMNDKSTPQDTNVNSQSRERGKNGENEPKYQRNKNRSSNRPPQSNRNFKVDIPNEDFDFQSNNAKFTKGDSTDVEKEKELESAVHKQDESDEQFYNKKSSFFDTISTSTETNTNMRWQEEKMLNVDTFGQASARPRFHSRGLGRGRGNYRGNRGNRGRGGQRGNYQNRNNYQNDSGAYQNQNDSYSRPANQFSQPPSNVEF

[3] = biological target: T1, Edc3 (two-hybrid fusion to the DNA binding domain) (S. cerevisiae); assay: two-hybrid; yeast strain BSY2475, isogenic to MAV203 but lacking Edc3 (Δedc3); β-galactosidase activity by Beta-Glo; Pat1 fused to Gal4AD
[4] = biological target: T2, Scd6 (two-hybrid fusion) (S. cerevisiae); assay: as above

ScPat1ΔC68 (ScPat1 lacking residues 730 to 796; two-hybrid fusion to Gal4AD) (from UniProt P25644) (domain or fragment)
binding [1]: no binding
binding [2]: binds
binding [3]: no binding
binding [4]: binds

No constants are given. Whether binding was seen depends on the method and setting. For some of these results: Binding can be weak; no strength is given. Where a sequence is shown, tags or fusion partners need not be part of it.
